Measurements taken from patent publication US20230125249A1 (FIRMENICH SA, priority 2017, published 2023).
At least one structure is not confirmed: it was looked up by name or label, or the drawing left a doubt.

Test: Human psychophysical (sensory) odor detection threshold of musk compounds
Assay type: in vivo
Details: human sensory panel

Compound	Mean odor detection threshold	Median odor detection threshold
CC1CC=CCCCCCCCCCC(=O)C1 (stereo not shown) [MUSCENONE®]	1.26e^−7 Log (μmol/l air)	1.04e^−7 Log (μmol/l air)
C[C@@H]1CCCCCCCCCCCCC(=O)C1 [Muscone]	1.21e^−6 Log (μmol/l air)	1.09e^−6 Log (μmol/l air)
